Measurements reported in PubChem BioAssay AID1259424 (University of Nebraska Medical Center, 2018)
Here is one part, drawn at random, of about 14,000 reagents. 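Higher correlation or smaller distance means closer resemblance to KSR1 loss; control wells, including KSR1 knockdowns, recur on many plates.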 Not all columns of the deposit are shown. No sequences are given here. Not given: the time to read-out.

Purpose: 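Seek colon cancer survival genes behaving like KSR1, using a six-gene signature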 (primary screen)
System: human HCT116 colon cancer cells
Knock-down reagent: siRNA pool against human genes, 50 nM
Measurement: 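Six signature mRNAs by branched-DNA multiplex assay, scaled to two housekeeping genes and non-targeting median, log2; matched to mean KSR1 knockdown profile by Pearson correlation and euclidean distance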
Scale: mean correlation with KSR1 profile: higher = expression change more like KSR1 knockdown; mean distance from KSR1 profile: higher = expression change less like KSR1 knockdown

Silencing of RAB1B (GeneID 81876) came out at: mean correlation with KSR1 profile -0.0941; mean distance from KSR1 profile 3.42.
After knock-down of ZC3H11A (GeneID 9877) the results were mean correlation with KSR1 profile 0.415; mean distance from KSR1 profile 1.75.
ISL1 (GeneID 3670) showed mean correlation with KSR1 profile -0.601; mean distance from KSR1 profile 1.76.
TOX (GeneID 9760) gave mean correlation with KSR1 profile -0.219; mean distance from KSR1 profile 3.78.
For PTPDC1 (GeneID 138639), the values are mean correlation with KSR1 profile -0.421; mean distance from KSR1 profile 1.9.
With knock-down of FGFR4 (GeneID 2264), the record shows mean correlation with KSR1 profile -0.115; mean distance from KSR1 profile 2.52.
Silencing of ALDH7A1 (GeneID 501) came out at: mean correlation with KSR1 profile 0.0387; mean distance from KSR1 profile 7.76.
Against ANAPC1 (GeneID 64682), the values are mean correlation with KSR1 profile 0.0776; mean distance from KSR1 profile 1.78.
Depletion of FNDC3A (GeneID 22862) gave: mean correlation with KSR1 profile -0.69; mean distance from KSR1 profile 1.38.
With knock-down of EPB41L2 (GeneID 2037), the screen gave mean correlation with KSR1 profile 0.0444; mean distance from KSR1 profile 2.7.
Knock-down of ARHGAP22 (GeneID 58504) gave: mean correlation with KSR1 profile 0.309; mean distance from KSR1 profile 2.64.
With knock-down of ILF3 (GeneID 3609), the screen gave mean correlation with KSR1 profile -0.21; mean distance from KSR1 profile 2.24.
TTLL4 (GeneID 9654) scored mean correlation with KSR1 profile -0.227; mean distance from KSR1 profile 2.33.
DUX5 (GeneID 26581) gave mean correlation with KSR1 profile 0.396; mean distance from KSR1 profile 3.26.
With knock-down of RLIM (GeneID 51132), the record shows mean correlation with KSR1 profile 0.161; mean distance from KSR1 profile 1.29.
With knock-down of COBL (GeneID 23242) the results were mean correlation with KSR1 profile -0.522; mean distance from KSR1 profile 3.87.
After knock-down of FSCN2 (GeneID 25794), the record shows mean correlation with KSR1 profile 0.736; mean distance from KSR1 profile 1.11.
With knock-down of APOD (GeneID 347), the record shows mean correlation with KSR1 profile 0.44; mean distance from KSR1 profile 1.13.
With knock-down of ROCK2 (GeneID 9475) the results were mean correlation with KSR1 profile 0.0786; mean distance from KSR1 profile 3.35.

2 entries from above, reduced to “mean distance from KSR1 profile”.
ANAPC1 (GeneID 64682) = 1.78
FNDC3A (GeneID 22862) = 1.38
